Out of some 220,000 compounds screened, about 770 (0.35%) were called active. Inconclusive results, whose numbers are uncertain, are shown with a selection of clear calls. No stated cut-off is given here; in the data, active means binding response below about 49% or above about 150%; inconclusive means no clear call, values can overlap the other calls; inactive means in between.
Target: Guanine nucleotide-binding protein G(o) subunit alpha (Homo sapiens) (UniProt P09471)
Assay: RGS7-Galphao binding modulators, primary screen, biochemical, multiplexed bead flow cytometry (AID 1439);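 further: fluorescent Galphao held in activated GDP-AlF4 state binding bead-coupled RGS7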
Settings: at 10 µM, actives lie on both sides

Amino acid sequences for entries named in this document (tags omitted).
UniProt P09471, whole entry, looked up: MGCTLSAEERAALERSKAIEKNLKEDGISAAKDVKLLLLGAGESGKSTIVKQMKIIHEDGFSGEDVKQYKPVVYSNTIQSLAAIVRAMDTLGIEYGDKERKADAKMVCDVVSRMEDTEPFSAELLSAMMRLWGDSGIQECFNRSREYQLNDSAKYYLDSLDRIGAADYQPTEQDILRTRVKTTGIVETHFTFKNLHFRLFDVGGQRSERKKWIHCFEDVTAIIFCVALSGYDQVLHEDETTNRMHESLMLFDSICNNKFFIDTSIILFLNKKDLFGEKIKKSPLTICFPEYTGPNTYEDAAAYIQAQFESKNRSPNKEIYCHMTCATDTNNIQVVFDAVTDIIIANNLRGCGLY

Row | Compound | binding response (% of control)
1 | O=C(C(=O)N1CCN(c2ccc(F)cc2)CC1)c1c[nH]c2ccccc12 | inconclusive: 103%
2 | CN(c1ccccc1)c1nc(N)c([N+](=O)[O-])c(N2CCCCC2)n1 | inconclusive: 83.8%
3 | COc1ccccc1CN1C[C@@H]2C[C@@H](c3ccc(C)c(C)c3)N3CCC[C@@]23C1=O | inactive: 104%
4 | COc1ccc(/C=C/C(=O)c2cc(Cl)cc(Cl)c2O)c(OC)c1 | inconclusive: 94.6%
5 | O=C(Nc1nc(-c2ccccc2Cl)cs1)c1cccnc1 | inactive: 97.4%
6 | CCSc1nnc(Cc2cc(=O)[nH]c(=O)[nH]2)n1-c1ccc(Cl)cc1 | inconclusive: 87%
7 | Cc1ccc(S(=O)(=O)N(C)c2ccc(C(=O)NCc3ccccn3)cc2)cc1 | inconclusive: 84.9%
8 | CCOC(=O)N1CCC(N(CCN(C)C)C(=S)Nc2ccc(Oc3ccccc3)cc2)CC1 | inactive: 101%
9 | CC(=O)Nc1ccc(Cc2ccc3[nH]c(=O)cc(C)c3c2)cc1 | inconclusive: 400%
10 | COC(=O)c1ccc(/C=N/OCC(=O)Nc2cc(F)ccc2F)cc1 | inconclusive: 93.3%
11 | O=S(=O)(NCCNc1nccc(C(F)(F)F)n1)c1ccccc1 | inconclusive: 105%
12 | Cc1c(/C=N/Nc2nc3ccccc3[nH]2)c2ccccc2n1C | inconclusive: 95.8%
13 | COc1ccc(/C=N/n2cnc3c([nH]c4ccccc43)c2=O)cc1CO | inconclusive: 115%
14 | Cc1ccc(C(O)Cn2cc([N+](=O)[O-])nc2C)cc1 (stereo not given) | inconclusive: 113%
15 | COc1cc(NC(=O)c2ccno2)cc(C(=O)Nc2cccc(C(F)(F)F)c2)c1 | inconclusive: 143%
16 | Cc1ccc(NC(=S)N2CCC(C(N)=O)(N3CCCCC3)CC2)c(C)c1 | inactive: 98.5%
17 | S=C(Nc1ccccc1)N1CCN(Cc2ccccc2)CC1 | inconclusive: 92.1%
18 | O=C(Nc1ccc2ccccc2c1)N1CCCN(CCOc2ccccc2)CC1 | inconclusive: 106%
19 | Cc1ccccc1-c1nc(-c2ccccn2)no1 | inconclusive: 90.5%
20 | C[C@H](NC(=O)c1nc[nH]c1C(=O)N1CCc2ccccc2C1)C(=O)OC(C)(C)C | inconclusive: 108%
21 | Cc1cc(C)cc(OCc2nnc(N)s2)c1 | inconclusive: 72.3%
22 | C=CCOc1ccc(C2=NO[C@@H]3[C@@H]4C[C@@H]([C@H]5C(=O)N(C)C(=O)[C@@H]45)[C@H]23)cc1 | inconclusive: 99.9%
23 | NNC(=O)CNC(c1ccccc1)c1cc(Br)ccc1NC(=O)c1ccccc1Br (stereo not given) | inactive: 104%

Row | Compound | binding response (% of control)
24 | C[C@H](NC(=O)OC(C)(C)C)C(=O)N/N=C/C1=Cc2ccccc2OC1 | inconclusive: 74.4%
25 | O=C(CC1Sc2ccccc2NC1=O)NCc1ccc(Cl)cc1 (stereo not given) | inactive: 93.4%
26 | Cc1ccc(-c2nc(NC(=O)CSc3nnc4scc(-c5ccccc5)n34)ns2)cc1 | inconclusive: 126%
27 | CC(C)N(C(=S)Nc1cccc(S(=O)(=O)N(C)C)c1)c1ccccc1 | inconclusive: 97.2%
28 | COC(=O)CNC(=O)C1Cc2ccccc2CN1S(=O)(=O)c1cccs1 (stereo not given) | inconclusive: -391%
29 | COP1(=O)C[C@@H](O)[C@@H](O)[C@@H](COCc2ccccc2)O1 (stereo not given in full) | inconclusive: 85.8%
30 | Nc1cc(=O)[nH]c(SCC(=O)Nc2cccc([N+](=O)[O-])c2)n1 | inconclusive: 114%
31 | Oc1cccc(C(O)CNCc2ccc(-c3ccccc3)cc2)c1 (stereo not given) | inconclusive: 75.3%
32 | CC1=[N+](C)c2ccc3ccccc3c2C1(C)C | inactive: 96%
33 | O=C(O)Cn1ncc2c1-c1ccoc1CC2 | inactive: 105%
34 | CCOc1cc(C=O)cc(Br)c1OCC(=O)NCCc1ccccc1 | inactive: 99.7%
35 | O=C(NN=C1CCCCCC1)c1ccc(Br)o1 | inactive: 120%
36 | O=C(NCc1cccnc1)c1cc2nc(-c3cccs3)cc(C(F)(F)Cl)n2n1 | inactive: 104%
37 | CCN(C(=O)CSc1nc2ccccc2c(=O)n1C(C)COC)C1CCS(=O)(=O)C1 (stereo not given) | inactive: 98.9%
38 | O=[N+]([O-])c1ccc(C=Nc2ccc(Cl)c([N+](=O)[O-])c2)s1 | inconclusive: 104%
39 | O=C(CC1NC(=S)NC1=O)c1ccc(Cl)cc1 (stereo not given) | inconclusive: 113%
40 | O=S(=O)(c1ccc(Cl)cc1)N1CCN(C(=S)Nc2ccccc2F)CC1 | inactive: 104%
41 | COP(=O)(OC)C(NC(=O)Nc1ccccc1)c1ccccc1 (stereo not given) | inconclusive: 35.5%
42 | NS(=O)(=O)c1ccc(CCNCC(=O)N2CCC(Cc3ccccc3)CC2)cc1 | inconclusive: 132%
43 | COc1ccc(-c2nnc(SCC(C)C)o2)cc1 | inconclusive: 103%
44 | CN(c1ccccc1)S(=O)(=O)c1cccc(NC(=O)CSc2n[nH]c(N)n2)c1 | inconclusive: 92.4%
45 | COc1ccc(NC(=O)CN2C(=O)/C(=C3\SC(=S)N(C4CCS(=O)(=O)C4)C3=O)c3ccccc32)cc1 (stereo not given) | inconclusive: 71.3%

Ordered by molecular weight (smallest number first): part of the list above.
Row | Compound | binding response (% of control)
33 | O=C(O)Cn1ncc2c1-c1ccoc1CC2 | inactive: 105%
21 | Cc1cc(C)cc(OCc2nnc(N)s2)c1 | inconclusive: 72.3%
14 | Cc1ccc(C(O)Cn2cc([N+](=O)[O-])nc2C)cc1 (stereo not given) | inconclusive: 113%
39 | O=C(CC1NC(=S)NC1=O)c1ccc(Cl)cc1 (stereo not given) | inconclusive: 113%
30 | Nc1cc(=O)[nH]c(SCC(=O)Nc2cccc([N+](=O)[O-])c2)n1 | inconclusive: 114%
2 | CN(c1ccccc1)c1nc(N)c([N+](=O)[O-])c(N2CCCCC2)n1 | inconclusive: 83.8%
11 | O=S(=O)(NCCNc1nccc(C(F)(F)F)n1)c1ccccc1 | inconclusive: 105%
10 | COC(=O)c1ccc(/C=N/OCC(=O)Nc2cc(F)ccc2F)cc1 | inconclusive: 93.3%
22 | C=CCOc1ccc(C2=NO[C@@H]3[C@@H]4C[C@@H]([C@H]5C(=O)N(C)C(=O)[C@@H]45)[C@H]23)cc1 | inconclusive: 99.9%
7 | Cc1ccc(S(=O)(=O)N(C)c2ccc(C(=O)NCc3ccccn3)cc2)cc1 | inconclusive: 84.9%
26 | Cc1ccc(-c2nc(NC(=O)CSc3nnc4scc(-c5ccccc5)n34)ns2)cc1 | inconclusive: 126%

— PubChem BioAssay AID1439 (NMMLSC, 2008)
